This assay deals with T1, MID1 B-box 1 (residues 110-165), yeast two-hybrid bait (human) (UniProt O15344).
T1 sequence: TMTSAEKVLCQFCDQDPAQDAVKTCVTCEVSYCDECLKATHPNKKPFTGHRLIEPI
As to the kind of experiment: yeast two-hybrid, deletion studies with α4 (preliminary data).

No constants are given. Whether binding was seen depends on the method and setting. Some results given as binding are weak or reduced against the parent protein; the word gives no strength.

The values that follow come from patent US8202696.

Turning to ERPPVKPFILTRNMAQAKVFGAGYPSLPTMTVSDWYEQHRKYGA [small part of α4 (44 amino acids), yeast two-hybrid deletion construct], the binding entry is “binds”.
